Experimental data from publication PMC12552473.
These are yes or no findings as the source states them, for the method shown. In cells and extracts the contact can be indirect. Some binding calls cover weakened binding; strength is not graded here. For some assays here: Tags and fused reporters may be left off the sequences shown.

The chains behind the UniProt entries cited, without tags or fusion partners.
UniProt Q16665: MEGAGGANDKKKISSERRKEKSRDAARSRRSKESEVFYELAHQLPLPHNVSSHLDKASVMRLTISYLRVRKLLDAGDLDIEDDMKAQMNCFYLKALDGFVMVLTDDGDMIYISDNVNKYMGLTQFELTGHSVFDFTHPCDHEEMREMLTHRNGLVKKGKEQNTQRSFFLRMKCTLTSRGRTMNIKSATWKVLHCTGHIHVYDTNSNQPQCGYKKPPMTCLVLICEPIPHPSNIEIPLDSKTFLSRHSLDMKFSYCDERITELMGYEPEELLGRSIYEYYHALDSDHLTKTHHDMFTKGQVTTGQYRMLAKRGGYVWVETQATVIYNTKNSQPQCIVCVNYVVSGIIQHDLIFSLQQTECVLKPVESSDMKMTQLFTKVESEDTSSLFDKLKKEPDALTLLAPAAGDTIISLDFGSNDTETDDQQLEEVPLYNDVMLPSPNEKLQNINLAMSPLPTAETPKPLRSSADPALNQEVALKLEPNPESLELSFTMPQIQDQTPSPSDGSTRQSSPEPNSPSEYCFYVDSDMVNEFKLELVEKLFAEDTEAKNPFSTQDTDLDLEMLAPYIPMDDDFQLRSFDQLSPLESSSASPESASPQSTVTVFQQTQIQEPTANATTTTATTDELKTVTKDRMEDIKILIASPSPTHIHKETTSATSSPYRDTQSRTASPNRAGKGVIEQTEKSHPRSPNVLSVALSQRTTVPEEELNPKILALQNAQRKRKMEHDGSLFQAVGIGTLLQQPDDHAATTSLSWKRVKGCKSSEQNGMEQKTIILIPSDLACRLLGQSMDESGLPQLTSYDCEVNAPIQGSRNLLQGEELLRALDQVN

What was measured:
[1] = molecular target: T1, Ubiquitin-like PHD and RING finger domain-containing protein 1 (UHRF1), endogenous in SKOV3 cells (human (endogenous in SKOV3)) (UniProt Q96T88); assay: co-IP; endogenous co-IP in SKOV3 cells; 1000 µg lysate protein in IP lysis buffer, 2 µg primary antibody overnight at 4 °C, Protein A/G beads, IgG as negative control
T1 sequence: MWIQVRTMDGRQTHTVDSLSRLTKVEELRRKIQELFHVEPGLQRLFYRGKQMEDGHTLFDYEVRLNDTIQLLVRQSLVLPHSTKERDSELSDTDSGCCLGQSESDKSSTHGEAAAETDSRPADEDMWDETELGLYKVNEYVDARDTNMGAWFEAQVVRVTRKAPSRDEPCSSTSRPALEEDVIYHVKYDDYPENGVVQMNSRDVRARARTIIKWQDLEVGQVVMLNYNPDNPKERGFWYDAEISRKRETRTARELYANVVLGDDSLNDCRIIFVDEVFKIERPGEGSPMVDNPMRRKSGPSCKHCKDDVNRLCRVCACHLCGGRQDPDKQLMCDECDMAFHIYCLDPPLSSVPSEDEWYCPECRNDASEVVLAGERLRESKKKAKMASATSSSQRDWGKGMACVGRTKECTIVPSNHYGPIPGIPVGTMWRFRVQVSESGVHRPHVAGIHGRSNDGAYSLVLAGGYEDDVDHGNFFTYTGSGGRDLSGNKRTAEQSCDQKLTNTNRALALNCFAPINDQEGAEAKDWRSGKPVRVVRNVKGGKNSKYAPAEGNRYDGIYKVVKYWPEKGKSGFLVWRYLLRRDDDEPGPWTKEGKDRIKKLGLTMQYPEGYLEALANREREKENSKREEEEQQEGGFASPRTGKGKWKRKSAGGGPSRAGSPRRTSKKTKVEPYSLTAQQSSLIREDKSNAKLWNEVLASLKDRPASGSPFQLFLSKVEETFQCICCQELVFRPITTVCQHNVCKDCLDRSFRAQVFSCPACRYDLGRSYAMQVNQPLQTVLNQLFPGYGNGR

[2] = molecular target: T2, Flag-UHRF1 (Ubiquitin-like PHD and RING finger domain-containing protein 1) (UniProt Q96T88); assay: co-IP; exogenous co-IP in 293T cells co-transfected with tagged UHRF1 and HIF-1α plasmids (whole or truncated), forward and reverse; 1000 µg lysate protein, 2 µg primary antibody overnight at 4 °C, Protein A/G beads, IgG as negative control
T2 sequence: T1 sequence

binding [1]	binding [2]	Substance
binds		Hypoxia-inducible factor 1 α (HIF-1α), endogenous in SKOV3 cells (from UniProt Q16665 1-826)
	binds	Myc-HIF-1α (hypoxia-inducible factor 1 α) (from UniProt Q16665 1-826)
